# According to PubChem BioAssay AID504467 (National Center for Advancing Translational Sciences (NCATS), 2011):
# About 7,700 (2.3%) of roughly 330,000 compounds were called active. The inconclusive results got no clear call from the source; some entries with a clear call stand among them for comparison. Calls come from the whole dose curve; as a rule, active = well fitted inhibition curve with a large enough effect; inconclusive = small, poorly fitted or top-dose-only effect, or effect the other way; inactive = flat fitted curve, though single readings scatter. Potencies of inconclusive entries are doubtful fits and often do not repeat.
# Test: qHTS screen for small molecules that inhibit ELG1-dependent DNA repair in human embryonic kidney (HEK293T) cells expressing luciferase-tagged ELG1; note: nearly all actives have a fitted effect of over 55% in size
# Details: HEK293T ELG1-luciferase reporter, luminescence, 16 h, DNA damage induced by 5-fluorouridine; activity change, negative = inhibition: at 46.1 µM (top of the series)
# Method in brief: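 5-Fluorouridine DNA damage + compound/DMSO, 2,000 cells/well, 16 h, 37 °C/5% CO2. ONE-Glo, 30 min RT, luminescence. Readout = decrease in reporter signal.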
# % is set by controls: 0 for no effect and ±100 for the full control effect; potency is the fitted concentration of half-maximal effect.
SMILES,Potency,"activity change, negative = inhibition"
O=C(Nc1cc(C(F)(F)F)ccc1Cl)c1cc2nc3c(c(C(F)(F)F)n2n1)CCCC3,"inconclusive: 20.6 µM [activator, partial curve]",
O=C(CSCc1ccccc1)Nc1cccc(F)c1,"inconclusive: 13 µM [activator, partial curve]",
CC(=O)Nc1ccc(-c2ccc(NC(C)=O)c(O)c2)cc1O,"inconclusive: 20.6 µM [activator, partial curve]",
O=C(COc1ccc2c3c(c(=O)oc2c1)CCCC3)N1C[C@H]2C[C@@H](C1)c1cccc(=O)n1C2,"inconclusive: 4.11 µM [activator, single point]",
Cc1ccc(NC(=O)CN(C)C(=O)c2cccc(S(=O)(=O)NCc3ccco3)c2)cc1,,inactive: 5.87%
COc1ccccc1C(CNC(=O)c1cc(C)nc2ccccc12)N(C)C (stereo unspecified),,inactive: 17.9%
CCCn1c(C)cc(C(=O)COc2ccc(S(=O)(=O)N(CC)CC)cc2[N+](=O)[O-])c1C,active: 16.4 µM,
O=C(CCN1CCN(c2ccccc2F)CC1)c1ccc(Br)cc1,,inactive: 1.48%
Cc1cnc(C(=O)N2CCN(c3ccc(C(F)(F)F)cn3)CC2)cn1,"inconclusive: 23.1 µM [inhibitor, partial curve, poor fit]",
CCOC(=O)Nc1ccc([N+](=O)[O-])cc1C,"inconclusive: 23.1 µM [activator, partial curve, poor fit]",
O=C(Nc1cccc(Cl)c1)C1C2C=CC3(O2)C1C(=O)N(CCCN1CCCCC1)C3C(=O)NC1CCCCC1 (stereo unspecified),,inactive: 0%
O=C(N/C(=C/c1cccc(Br)c1)c1nc(=S)[nH][nH]1)c1ccccc1,"inconclusive: 18.4 µM [activator, single point]",
CN(C)c1ccc(N=Cc2nc(-c3ccccc3)oc2OC(=O)c2cccc(Cl)c2)cc1,"inconclusive: 4.61 µM [activator, partial curve]",
C[C@H](NC(=O)[C@H]1N2C(=O)c3ccccc3C2SC1(C)C)C(=O)N1CCC[C@H]1C(=O)O (stereo partly specified),,inactive: 16.2%
COc1ccc(C(C)=O)cc1COC(=O)Cc1cc(OC)c(OC)c(OC)c1,,inactive: 13.8%
Cc1nc(-c2ccccn2)nc(SCC(=O)c2ccc(F)cc2)c1Cl,"inconclusive: 20.6 µM [inhibitor, single point]",
Cc1cc(S(=O)(=O)N2CCOCC2)ccc1OCC(=O)Nc1cccc(C(F)(F)F)c1,"inconclusive: 16.4 µM [activator, single point]",
Cc1ncc(CSc2ccc(Cl)cc2)c(CO)c1O,"inconclusive: 20.6 µM [inhibitor, single point]",
CC(C)C(NS(=O)(=O)c1c(Cl)cccc1Cl)C(=O)OCC(=O)c1c[nH]c2ccccc12 (stereo unspecified),"inconclusive: 20.6 µM [inhibitor, single point]",
CCCCNC(=S)N/N=C/c1ccc(OCC(=O)Nc2c(C)cc(C)cc2C)c(OC)c1,,inactive: -0.94%
CN(C)c1ccc(/C=N/NC2=NS(=O)(=O)c3ccccc32)cc1,,inactive: 20.1%
CCC(C)c1ccc(NC(=S)NC2CCN(Cc3ccccc3)CC2)cc1 (stereo unspecified),"inconclusive: 4.11 µM [inhibitor, partial curve, poor fit]",
COCCNC(=S)N1CCC(c2nc(-c3ccc(N(C)C)cc3)no2)CC1,"inconclusive: 20.6 µM [inhibitor, single point]",
Cc1cc(C(=O)CSc2nnc(Nc3ccccc3)s2)c(C)n1CC1CCCO1 (stereo unspecified),active: 18.4 µM,

SMILES,Potency,"activity change, negative = inhibition"
COc1ccc(/C=C(\C#N)C(=O)NC(C)c2ccccc2)cc1O (stereo unspecified),"inconclusive: 13 µM [inhibitor, partial curve, poor fit]",
c1ccc2c(c1)[nH]c1c(N3CCC4(CC3)OCCO4)ncnc12,active: 20.6 µM,
COC(=O)c1c(NC(=O)CSc2nnc(-c3cccnc3)n2Cc2ccco2)sc(C)c1C,"inconclusive: 29.1 µM [inhibitor, single point]",
O=C1C=C(c2cc3ccccc3s2)C[C@@H](c2ccc3c(c2)OCO3)C1,"inconclusive: 16.4 µM [activator, single point]",
CCOC(=O)C1CCN(C(=O)c2ccc(Cl)c(S(=O)(=O)N3CCCC3)c2)CC1,"inconclusive: 10.3 µM [activator, partial curve, poor fit]",
COc1cccc(Oc2ccc(N)cc2)c1,"inconclusive: 6.51 µM [activator, partial curve]",
Cc1cc(C[n+]2cc(Cl)ccc2N)c2ncccc2c1,"inconclusive: 8.2 µM [inhibitor, partial curve]",
O=C1N(c2ccccc2)C(c2ccccc2)C12CCCCC2 (stereo unspecified),,inactive: -11.3%
CC(C)OC(=O)Cn1nnc2c(cnn2-c2ccccc2)c1=O,"inconclusive: 23.1 µM [activator, single point]",
CC(C)C1N(C(N)=S)N=CC1(C)C (stereo unspecified),,inactive: 5.52%
Cc1cc(/C=N/n2cnnc2)c(C)n1-c1ccc(OCc2ccc(F)cc2)cc1,"inconclusive: 32.6 µM [activator, partial curve, poor fit]",
COc1ccc(-c2csc(NC3CCCCC3)n2)c(OC)c1,"inconclusive: 29.1 µM [activator, single point]",
O=C(Cc1ccccc1[N+](=O)[O-])NCc1ccc(Cl)cc1Cl,"inconclusive: 10.3 µM [activator, partial curve]",
COC(=O)c1ccccc1NC(=O)CCC(=O)N1CC(C)Oc2ccc(C)cc21 (stereo unspecified),"inconclusive: 29.1 µM [inhibitor, single point]",
Nc1nnnn1/N=C/c1ccc(F)cc1,"inconclusive: 16.4 µM [activator, single point]",
COC1CCN(C(=O)c2ccc3oc(C(C)C)nc3c2)CC1,"inconclusive: 14.6 µM [activator, partial curve]",
Cc1ccccc1C(=O)NC1CC(C)(C)NC(C)(C)C1,,inactive: 5.74%
O=C1C2ON(c3ccccc3)C(c3ccccn3)C2C(=O)N1c1ccc(Br)cc1 (stereo unspecified),"inconclusive: 29.1 µM [inhibitor, single point]",
CCOc1ccccc1OCC(=O)OCC(=O)c1c(N)n(CC(C)C)c(=O)n(C)c1=O,"inconclusive: 18.3 µM [inhibitor, single point]",
O=S(=O)(c1ccc2nc(-c3ccccc3)[nH]c2c1)N1CCN(c2cccc(Cl)c2)CC1,"inconclusive: 6.51 µM [inhibitor, full curve]",
CCOC(=O)c1ccc(N2CN=C3SCC(=O)N3C2)cc1,"inconclusive: 11.2 µM [activator, single point]",
CC(C)CCN1CCC(n2nccc2NC(=O)C2CCOC2)CC1 (stereo unspecified),"inconclusive: 29.1 µM [activator, single point]",
Cc1cc(C(=O)N/N=C2\CCCc3ccccc32)c(C)o1,"inconclusive: 18.4 µM [activator, partial curve]",
CCc1ccc(S(=O)(=O)Nc2c(C)nc3nc[nH]n3c2=O)cc1,"inconclusive: 18.3 µM [activator, partial curve, poor fit]",

SMILES,Potency,"activity change, negative = inhibition"
O=C(c1ccco1)N1CCN(c2ncnc3c2[nH]c2ccc(Cl)cc23)CC1,"inconclusive: 29.1 µM [inhibitor, single point]",
COC(=O)C1=CN(Cc2ccc(OC)c(OC)c2)C=C(C(=O)OC)C1c1ccc(O)cc1,,inactive: 0%
O=C(O)C1C2C=CC(C2)C1C(=O)Nc1ccc(Cl)c(Cl)c1 (stereo unspecified),,inactive: 8.82%
O=C(O)COc1ccc(/C=C/c2nc(-c3ccccc3O)n[nH]2)cc1,,inactive: -21.5%
Cc1cccc(N2N=C(C(=O)O)CCC2=O)c1,,inactive: -6.16%
Cc1cccc(N2CN=c3s/c(=C\c4ccccn4)c(=O)n3C2)c1,"inconclusive: 20.6 µM [inhibitor, single point]",
O=C(COc1ccc2ccc(=O)oc2c1)NCCCN1CCCC1=O,,inactive: 6.49%
Cc1nc2sc(C(c3ccccc3)N3CCOCC3)c(O)n2n1 (stereo unspecified),,inactive: 0.261%
O=C(COC(=O)c1cccs1)Nc1nnc(-c2ccccc2)o1,,inactive: 25.8%
CCOC(=O)c1cnc2ccc(OCC)cc2c1N1CCN(c2ccccc2)CC1,"inconclusive: 29.1 µM [inhibitor, single point]",
C[C@@H](C(=O)N1CCN(Cc2ccc3c(c2)OCO3)CC1)n1nnc2ccccc2c1=O,,inactive: -18.5%
O=C(NC(=S)NCCC1=CCCCC1)c1cncc(Br)c1,,inactive: 25.9%
CCOC(=O)C1=C(C)NC(=O)NC1c1ccc(-c2ccc(Cl)cc2)o1 (stereo unspecified),"inconclusive: 20.6 µM [inhibitor, single point]",
CCOC(=O)N1CCN(C(=O)C2COc3ccccc3O2)CC1 (stereo unspecified),,inactive: 0%
Cc1ccccc1/C=C1\C(=O)Nc2ccc(F)cc21,,inactive: -3.68%
COc1ccc(CCCc2nnc(SCC(=O)Nc3cc(C)c(C)cc3Br)o2)cc1,"inconclusive: 12.6 µM [inhibitor, single point]",
C=C(C)Cn1c(N2CCN(c3ccc(OC)cc3)CC2)nc2c1c(=O)n(C)c(=O)n2C,"inconclusive: 29.1 µM [inhibitor, single point]",
COc1ccc([C@H]2CC(=O)C=C(c3ccccc3)C2)cc1OC,"inconclusive: 16.4 µM [inhibitor, single point]",
COC(=O)c1ccc(CSc2nnnn2Cc2ccccc2)cc1,,inactive: -15.2%
Cc1cccc(NCc2ccccc2O)n1,"inconclusive: 3.26 µM [activator, single point]",
CC(C)c1ccc(Nc2nc(CC(=O)O)cs2)cc1,"inconclusive: 2.31 µM [activator, full curve]",
COc1ccc(N=Nc2n(C)c3ccccc3[n+]2C)cc1,"inconclusive: 1.16 µM [activator, partial curve]",
COc1ccc(-n2c(SCc3ccc([N+](=O)[O-])cc3)nnc2-c2ccc(C)cc2)cc1,"inconclusive: 29.1 µM [inhibitor, single point]",

# As a working copy, two of the compounds above.
SMILES,Potency,"activity change, negative = inhibition"
CC(C)c1ccc(Nc2nc(CC(=O)O)cs2)cc1,"inconclusive: 2.31 µM [activator, full curve]",
COc1ccc(N=Nc2n(C)c3ccccc3[n+]2C)cc1,"inconclusive: 1.16 µM [activator, partial curve]",

# Record cards, as listed above.
# Cc1cccc(N2N=C(C(=O)O)CCC2=O)c1 as listed: activity change, negative = inhibition: inactive: -6.16%
# O=C(O)C1C2C=CC(C2)C1C(=O)Nc1ccc(Cl)c(Cl)c1 (stereo unspecified) as listed: activity change, negative = inhibition: inactive: 8.82%
